Measured values as given in PubChem BioAssay AID504444 (National Center for Advancing Translational Sciences (NCATS), 2011).
Hit rate of the full screen: of about 360,000 compounds, about 7,500 (2.1%) were called active. Inconclusive results, whose numbers are uncertain, are shown with a selection of clear calls. Calls follow the shape of the dose curve; as a rule, active = well fitted inhibition curve with a large enough effect; inconclusive = small, poorly fitted or top-dose-only effect, or effect the other way; inactive = flat fitted curve, though single readings scatter. Potencies of inconclusive entries are doubtful fits and often do not repeat.

Assay: Nrf2 qHTS screen for inhibitors; also: nearly all actives have a fitted effect of over 60% in size
Conditions: A549 ARE-Fluc reporter, luciferase luminescence, 18-24 h; activity change, negative = inhibition: at 46 µM (top of the series)
Summary of the method: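 Nrf2 function is reported as luminescence of an ARE-controlled luciferase in A549 cells. Compounds were tested at several concentrations, and a CellTiter-Fluor read on the same wells flagged cytotoxicity.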
% is scaled to controls: 0 for no effect and ±100 for the full control effect; potency is read from the fitted curve at half-maximal effect.

Question: With `C/C(=N\NC(=O)c1cc(O)cc(O)c1)c1ccc(NC(=O)Cc2ccccc2)cc1` as the compound, how does the Potency read?
Answer: inconclusive: 20.6 µM [activator, partial curve]

Question: With `Cc1ccc(S(=O)(=O)N2c3cc(C)ccc3OCC2C(C)(C)C)cc1` (configuration not stated) as the compound, how does the Potency read?
Answer: inconclusive: 5.17 µM [falling, partial curve, poor fit]

Question: For `COc1ccc(OC)c(-c2noc(N3CCN(c4ccc(C(C)=O)cc4)CC3)n2)c1`, which “activity change, negative = inhibition” value is on record?
Answer: inactive: -18.8%

Question: With `O=C1c2ccccc2S(=O)(=O)N1CC1CC(c2ccccc2Cl)=NO1` (configuration not stated) as the compound, how does the Potency read?
Answer: inconclusive: 9.2 µM [activator, partial curve]

Question: Which “activity change, negative = inhibition” value does the source give for `CC(=O)Nc1c(O)c2cccc3c2n(c1=O)CCC3` here?
Answer: inactive: 3.19%

Question: Which Potency does the source give for `O=C(CSc1nnc(NC2CC2)s1)c1ccc[nH]1` here?
Answer: inconclusive: 2.06 µM [activator, partial curve]

Question: With `Cc1cc(C)nc(NS(=O)(=O)c2ccc(NC(=O)c3cc4c(=O)n5cccc(C)c5nc4n3C)cc2)n1` as the compound, how does the Potency read?
Answer: active: 23.1 µM

Question: For `O=C(Nc1ccc2c(c1)CCC2)c1ccccc1Br`, which Potency is on record?
Answer: inconclusive: 0.58 µM [activator, partial curve]

Question: For `Cc1ccc(/C=N/NC(=O)c2c(C)nc3ccc(Br)cn23)cc1`, which Potency is on record?
Answer: inconclusive: 2.31 µM [activator, partial curve]

Question: Which Potency does the source give for `CC(C)C(=O)NC(=S)Nc1ccccc1C(F)(F)F` here?
Answer: inconclusive: 6.31 µM [activator, partial curve, poor fit]

Question: With `Nc1n[nH]c(N)c1N=Nc1ccc2c(c1)OCO2` as the compound, how does the Potency read?
Answer: inconclusive: 14.6 µM [activator, partial curve]

Question: With `Cc1ccc(S(=O)(=O)N(CC(=O)N=Nc2c(O)[nH]c3ccccc23)c2cccc(C)c2)cc1` as the compound, how does the Potency read?
Answer: inconclusive: 29.1 µM [falling, single point]

Question: For `Cc1ccc(NC(=O)CN(C)C(=O)Cc2c[nH]c3ccccc23)cc1`, which “activity change, negative = inhibition” value is on record?
Answer: inactive: 6.29%

Question: For `COc1ccc(NC(=O)c2cnn(-c3ccc(F)cc3F)c2C2CCN(C(=O)OC(C)(C)C)CC2)cc1Cl`, which Potency is on record?
Answer: inconclusive: 29.1 µM [falling, single point]

Question: For `CC(O)CNCCCCOc1ccc(OCc2ccccc2)cc1` (configuration not stated), which Potency is on record?
Answer: inconclusive: 9.2 µM [activator, partial curve]

Question: For `CCCn1nc(C(=O)OCC(=O)NC(C)c2ccccc2)c2ccccc2c1=O` (configuration not stated), which Potency is on record?
Answer: inconclusive: 3.66 µM [activator, full curve, poor fit]

Question: For `COC(=O)c1ccc2c(=O)n(Cc3ccco3)c(SCC(=O)Nc3cc(C)on3)nc2c1`, which Potency is on record?
Answer: inconclusive: 29.1 µM [falling, single point]

Question: Which Potency does the source give for `C=CCN1/C(=C(\C#N)C2=NS(=O)(=O)c3ccccc32)N(C)c2ccccc21` here?
Answer: inconclusive: 0.731 µM [activator, full curve, poor fit]

Question: With `Cc1c(C(=O)OCC(=O)NC(=O)NC2CCCCC2)cccc1[N+](=O)[O-]` as the compound, how does the Potency read?
Answer: inconclusive: 29.1 µM [falling, single point]

Question: For `COc1ccc(C(=O)NCCCOC(C)C)cc1OC1CCN(C(C)=O)CC1`, which Potency is on record?
Answer: inconclusive: 23.1 µM [activator, single point]

Question: For `Cc1ccc(Nc2cc(C)nc(N3CCOCC3)n2)cc1`, which Potency is on record?
Answer: inconclusive: 6.51 µM [activator, full curve]

Question: With `COC(=O)c1ccccc1NC(=O)CSc1nnnn1-c1ccc(C)cc1C` as the compound, how does the Potency read?
Answer: inconclusive: 29.1 µM [falling, single point]

Question: For `CCOC(=O)c1sc(=S)n(-c2ccc3c(c2)OCO3)c1N`, which Potency is on record?
Answer: inconclusive: 25.9 µM [falling, partial curve, poor fit]

Question: For `O=C(Nc1ccc(Cl)cc1)c1cc(S(=O)(=O)N2CCOCC2)cs1`, which Potency is on record?
Answer: active: 4.61 µM

Question: For `CC(=O)N1c2ccc(S(=O)(=O)N3CCC(C(=O)NCCc4ccc(Cl)cc4)CC3)cc2CC1C` (configuration not stated), which Potency is on record?
Answer: inconclusive: 29.1 µM [falling, single point]

Question: For `COc1ccc(N2CCN(c3nc4ccc(C)cn4c(=O)c3C=O)CC2)cc1`, which Potency is on record?
Answer: inconclusive: 18.4 µM [falling, single point]

Question: Which Potency does the source give for `COc1ccc(CCC(C)NC(=O)Cc2ccc(OC)c(OC)c2)c(OC)c1` (configuration not stated) here?
Answer: inconclusive: 18.4 µM [falling, single point]

Question: With `COc1ccccc1-c1nc(=S)c(C(C)=O)c(C)[nH]1` as the compound, how does the Potency read?
Answer: inconclusive: 0.146 µM [activator, full curve, poor fit]

Question: Which Potency does the source give for `Cc1cc(Nc2cccc(Br)c2)c2ccccc2n1` here?
Answer: inconclusive: 23.1 µM [falling, single point]

Question: For `COc1ccc(OCCSc2nc3ccccc3n2CCC(=O)O)cc1`, which Potency is on record?
Answer: inconclusive: 1.64 µM [falling, partial curve, poor fit]

Question: With `CCCOc1ccc(C(=O)Nc2ccc3nn(-c4ccc(OC)c(Cl)c4)nc3c2)cc1` as the compound, how does the “activity change, negative = inhibition” value read?
Answer: inactive: 8.95%

Question: With `CCOc1ccc(NS(=O)(=O)c2ccc(-c3ccc(=O)[nH]n3)o2)cc1` as the compound, how does the Potency read?
Answer: inconclusive: 11.6 µM [falling, partial curve]

Question: For `CCOc1ccc(-c2nnc(SCC(=O)Nc3cc(F)ccc3F)o2)cc1`, which Potency is on record?
Answer: inconclusive: 23.1 µM [activator, single point]

Question: Which “activity change, negative = inhibition” value does the source give for `O=C(CSc1ccccc1C(=O)NCc1ccccc1)NC1CCCCCCC1` here?
Answer: inactive: 2.34%

Question: For `COc1ccc(NC(=O)c2c(-c3ccccc3Cl)noc2C)c(OC)c1`, which “activity change, negative = inhibition” value is on record?
Answer: inactive: 1.21%

Question: With `CCOC(=O)CN1C(=O)Nc2ccc(Br)cc2C1c1ccccc1` (configuration not stated) as the compound, how does the Potency read?
Answer: inconclusive: 18.4 µM [falling, single point]

Question: For `Cc1nc2ccccc2cc1OCc1ccc(F)cc1`, which Potency is on record?
Answer: inconclusive: 2.59 µM [falling, full curve]

Question: With `COc1ccc(-c2nc(SC)n(S(=O)(=O)c3ccccc3)n2)cc1` as the compound, how does the Potency read?
Answer: inconclusive: 6.51 µM [activator, partial curve]

Question: With `Cc1ccc(C(=O)OCC(=O)N2C(C)CCCC2C)cc1S(=O)(=O)N1CCOCC1` (configuration not stated) as the compound, how does the Potency read?
Answer: inconclusive: 6.51 µM [activator, single point]

Question: Which Potency does the source give for `Cn1ncc2c(N3CCOCC3)ncnc21` here?
Answer: inconclusive: 6.51 µM [falling, full curve, poor fit]

Question: Which “activity change, negative = inhibition” value does the source give for `COc1ccc(Cl)cc1-n1c(=S)sc2c(=O)[nH]c(SCC(=O)NCCC(C)C)nc21` here?
Answer: inactive: 2.11%

Question: For `COc1ccc(-c2csc(N3CCC(C(N)=O)(N4CCCCC4)CC3)n2)cc1`, which Potency is on record?
Answer: inconclusive: 20.6 µM [falling, single point]
